At least one structure is not confirmed: it was looked up by name or label, or the drawing left a doubt.
Tested on: U937 cells expressing an inducible shRNF5 vector
Assay: Small molecule epigenetic regulator screen
Type: cell-based
Details: 0.5 μM or 5 μM

C/C=C1\NC(=O)[C@H]2CSSCC/C=C/[C@H](CC(=O)N[C@H](C(C)C)C(=O)N2)OC(=O)[C@H](C(C)C)NC1=O [Romidepsin (FK228, Depsipeptide), Romidepsin]
lethality at screen concentrations: lethal to both RNF5-KD and control U937 cells

Reference: US20230265432A1, “METHODS AND COMPOSITIONS FOR TREATING ACUTE MYELOID LEUKEMIA” (Sanford Burnham Prebys Medical Discovery Institute, priority 2021, published 2023)
